{"source": "paper PMC6695811", "about": "“Protein Phosphatase Ppz1 Is Not Regulated by a Hal3-Like Protein in Plant Pathogen Ustilago maydis” (International Journal of Molecular Sciences, 2019)", "test_in_all_cases": "pull-down; GST-tagged phosphatases on glutathione agarose beads (4 ug UmPpz1; 8 ug ScPpz1 or ScPpz1-Cter) incubated with protein extracts of S. cerevisiae IM021 (ppz1 hal3) expressing 3HA-tagged Hal3 versions; beads washed, SDS-PAGE, anti-HA immunoblot; only the target purified", "key": {"[1]": {"target": "T1, GST-tagged S. cerevisiae Ppz1 (GST-ScPpz1) (S. cerevisiae) (UniProt P26570)", "T1 sequence": "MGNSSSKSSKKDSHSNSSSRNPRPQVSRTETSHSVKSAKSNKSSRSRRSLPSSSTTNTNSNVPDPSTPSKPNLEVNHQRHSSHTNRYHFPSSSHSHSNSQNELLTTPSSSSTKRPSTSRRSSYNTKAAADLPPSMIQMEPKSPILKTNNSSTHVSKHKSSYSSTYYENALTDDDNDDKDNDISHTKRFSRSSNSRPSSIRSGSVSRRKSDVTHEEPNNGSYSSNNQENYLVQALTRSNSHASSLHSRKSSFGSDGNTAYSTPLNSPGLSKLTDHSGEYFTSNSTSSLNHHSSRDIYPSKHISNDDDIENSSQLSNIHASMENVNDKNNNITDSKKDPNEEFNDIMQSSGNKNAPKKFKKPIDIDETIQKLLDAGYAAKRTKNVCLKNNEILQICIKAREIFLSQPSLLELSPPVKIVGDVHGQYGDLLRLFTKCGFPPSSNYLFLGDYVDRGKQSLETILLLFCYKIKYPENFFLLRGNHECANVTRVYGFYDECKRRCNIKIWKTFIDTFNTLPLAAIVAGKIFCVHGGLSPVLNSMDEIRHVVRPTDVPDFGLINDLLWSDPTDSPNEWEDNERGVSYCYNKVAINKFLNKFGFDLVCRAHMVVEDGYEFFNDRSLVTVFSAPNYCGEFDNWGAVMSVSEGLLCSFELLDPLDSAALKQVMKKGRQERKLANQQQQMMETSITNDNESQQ"}, "[2]": {"target": "GST-tagged Ustilago maydis Ppz1 (GST-UmPpz1) (Ustilago maydis)"}, "[3]": {"target": "GST-tagged Ustilago maydis Ppz1 (GST-UmPpz1) (Ustilago maydis)", "remark": "listed apart in the source"}}, "note": "Read-outs that look alike come from different tables or passages of the source. Results are given in words; binding and its absence hold for the method and conditions named. In cells and extracts the contact can be indirect. Binding calls can cover weak binding; strength is not graded here. For some of these results: Tags and fused reporters may be left off the sequences shown.", "data": [{"molecule": "3xHA-tagged PPCDC domain of Ustilago maydis Hal3 (UmHal3_PD) (domain or fragment)", "values": [{"measurement": "binding", "setting": "[1]", "result": "binds weakly"}]}, {"molecule": "3xHA-tagged full-length Ustilago maydis Hal3 (UmHal3) (from UniProt A0A0D1DP09)", "values": [{"measurement": "binding", "setting": "[2]", "result": "binds weakly"}, {"measurement": "binding", "setting": "[1]", "result": "binds weakly"}]}, {"molecule": "3xHA-tagged S. cerevisiae Hal3 (ScHal3) (protein, UniProt P36024 1-562) MTAVASTSGKQDADHNQSIECPRFSRGQKEILLDHEDAKGKDSIINSPVSGRQSISPTLSNATTTTTKSIMNATGTSGAVVSNTPEPGLKRVPAVTFSDLKQQQKQDSLTQLKNDSERTKSPNSNPAPVSNSIPGNHAVIPNHTNTSRTTQLSGSPLVNEMKDYDPKKKDSALKIVDTMKPDKIMATSTPISRENNKVTAKAPTSITLRKEDAQDQANNVSGQINVRSTPEETPVKQSVIPSIIPKRENSKNLDPRLPQDDGKLHVLFGATGSLSVFKIKPMIKKLEEIYGRDRISIQVILTQSATQFFEQRYTKKIIKSSEKLNKMSQYESTPATPVTPTPGQCNMAQVVELPPHIQLWTDQDEWDAWKQRTDPVLHIELRRWADILVVAPLTANTLSKIALGLCDNLLTSVIRAWNPSYPILLAPSMVSSTFNSMMTKKQLQTIKEEMSWVTVFKPSEKVMDINGDIGLGGMMDWNEIVNKIVMKLGGYPKNNEEEDDDEDEEEDDDEEEDTEDKNENNNDDDDDDDDDDDDDDDDDDDDDDDDEDEDEAETPGIIDKHQ", "values": [{"measurement": "binding", "setting": "[3]", "result": "binds"}]}]}
